Literature values in patent publication US20250134861A1, “COMPOSITIONS COMPRISING 5-METHOXY-N,N-DIMETHYLTRYPTAMINE (5-MEO-DMT) FOR USE IN TREATING MENTAL DISORDERS” (GH RESEARCH IRELAND LIMITED, priority 2019, published 2025).
At least one structure is not confirmed: it was looked up by name or label, or the drawing left a doubt.

Columns and labels:
[1] = test system: cancer patients with anxiety and depression; conditions: single dose, niacin comparator; 29 patients; enduring effects at the 6.5-month follow-up; cited from earlier work
[2] = oral; cited from earlier work
[3] = test system: patients with treatment-resistant depression; conditions: cited from earlier work
[4] = test system: cancer patients with anxiety and/or mood symptoms; conditions: high single dose vs very low placebo-like dose; 51 patients; five weeks after treatment, sustained at 6-months; cited from earlier work

In the case of `CN(C)CCc1c[nH]c2cccc(OP(=O)(O)O)c12` [psilocybin], the Anxiety and depression [1] is given as “immediate and substantial improvements”, the “Duration of acute psychedelic effects” value [2] is given as “several hours” and the Depressive symptoms ([3]; low dose and high dose seven days apart, 20 patients, one and five weeks after treatment) is given as “significantly reduced from baseline”. The Responders who relapsed ([3]; until month 6, of the 9 responders) was 3, the “Patients with a response” value ([3]; week 5) was 9 of 20 and the “Clinician- and self-rated measures of depression, anxiety or mood disturbances” value [4] was “large decreases”.
